No constants are given. Whether binding was seen depends on the method and setting. Binding seen in cells or lysates may run through a third protein. Some entries that bind do so weakly or less than the wild type. For some assays here: Sequences can lack the tags named with a protein.
Key:
[1] = target: GST-Atg8a-LDS mutant (Y49A) (Drosophila) (UniProt Q9W2S2); experiment: pull-down; GST, GST-Atg8a-WT or GST-Atg8a-LDS pulled down and incubated with larval lysate expressing Sir2-myc; eluates blotted with anti-myc; only the target purified
[2] = target: GST-Atg8a-WT (Drosophila) (UniProt Q9W2S2); experiment: as above
GABARAP = GABARAP (UniProt O95166); experiment: pull-down; GST pull-down of mammalian proteins (Figures S1B and S1C); which partner carried GST is not told in the text shown
[3] = target: T1, GST-Atg8a N-terminal half (amino acid residues 1–71) (Drosophila) (UniProt Q9W2S2); experiment: pull-down; GST-Atg8a proteins (1–10 μg) on glutathione-Sepharose beads, 10 μL of in vitro translated 35S-methionine-labeled protein, NETN buffer (50 mM Tris pH 8.0, 150 mM NaCl, 1 mM EDTA, 0.5% Nonidet P-40, 1 mM DTT), 2 h at 4°C, six washes, SDS-PAGE and autoradiography; only the target purified
T1 sequence: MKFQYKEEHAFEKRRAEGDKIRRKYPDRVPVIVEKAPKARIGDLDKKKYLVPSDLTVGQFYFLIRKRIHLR

Amino acid sequences for entries named in this document (tags omitted).
UniProt O95166: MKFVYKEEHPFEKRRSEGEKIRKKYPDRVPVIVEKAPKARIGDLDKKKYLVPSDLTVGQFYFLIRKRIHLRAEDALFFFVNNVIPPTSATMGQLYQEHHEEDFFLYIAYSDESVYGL

[4] = target: T2, GST-Atg8a residues 1–26 (Drosophila) (UniProt Q9W2S2); experiment: as above
T2 sequence: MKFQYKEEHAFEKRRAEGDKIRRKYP

[5] = target: GST-Atg8a residues 26–121 (Drosophila) (UniProt Q9W2S2); experiment: as above
[6] = target: GST-Atg8a-LDS mutant (Y49A) (Drosophila) (UniProt Q9W2S2); experiment: as above
[7] = target: GST-Atg8a-WT (Drosophila) (UniProt Q9W2S2); experiment: as above

B1: Sir2-myc (enzyme, UniProt Q9VK34 1-823)
chain: MMENYEEIRLGHIRSKDLGNQVPDTTQFYPPTKFDFGAEILASTSTEAEAEAEATATTTEPATSELAGKANGEIKTKTLAAREEQEIGANLEHKTKNPTKSMGEDEDDEEEEEEDDEEEEEDDEEGITGTSNEDEDSSSNCSSSVEPDWKLRWLQREFYTGRVPRQVIASIMPHFATGLAGDTDDSVLWDYLAHLLNEPKRRNKLASVNTFDDVISLVKKSQKIIVLTGAGVSVSCGIPDFRSTNGIYARLAHDFPDLPDPQAMFDINYFKRDPRPFYKFAREIYPGEFQPSPCHRFIKMLETKGKLLRNYTQNIDTLERVAGIQRVIECHGSFSTASCTKCRFKCNADALRADIFAQRIPVCPQCQPNKEQSVDASVAVTEEELRQLVENGIMKPDIVFFGEGLPDEYHTVMATDKDVCDLLIVIGSSLKVRPVAHIPSSIPATVPQILINREQLHHLKFDVELLGDSDVIINQICHRLSDNDDCWRQLCCDESVLTESKELMPPEHSNHHLHHHLLHHRHCSSESERQSQLDTDTQSIKSNSSADYILGSAGTCSDSGFESSTFSCGKRSTAAEAAAIERIKTDILVELNETTALSCDRLGLEGPQTTVESYRHLSIDSSKDSGIEQCDNEATPSYVRPSNLVQETKTVAPSLTPIPQQRGKRQTAAERLQPGTFYSHTNNYSYVFPGAQVFWDNDYSDDDDEEEERSHNRHSDLFGNVGHNYKDDDEDACDLNAVPLSPLLPPSLEAHIVTDIVNGSNEPLPNSSPGQKRTACIIEQQPTPAIETEIPPLKKRRPSEENKQQTQIERSEESPPPGQLAAV
For B1, the binding [1] was “binds” and the binding [2] was “binds”.

B2: KDM4A (protein, UniProt O75164 1-1064)
chain: MASESETLNPSARIMTFYPTMEEFRNFSRYIAYIESQGAHRAGLAKVVPPKEWKPRASYDDIDDLVIPAPIQQLVTGQSGLFTQYNIQKKAMTVREFRKIANSDKYCTPRYSEFEELERKYWKNLTFNPPIYGADVNGTLYEKHVDEWNIGRLRTILDLVEKESGITIEGVNTPYLYFGMWKTSFAWHTEDMDLYSINYLHFGEPKSWYSVPPEHGKRLERLAKGFFPGSAQSCEAFLRHKMTLISPLMLKKYGIPFDKVTQEAGEFMITFPYGYHAGFNHGFNCAESTNFATRRWIEYGKQAVLCSCRKDMVKISMDVFVRKFQPERYKLWKAGKDNTVIDHTLPTPEAAEFLKESELPPRAGNEEECPEEDMEGVEDGEEGDLKTSLAKHRIGTKRHRVCLEIPQEVSQSELFPKEDLSSEQYEMTECPAALAPVRPTHSSVRQVEDGLTFPDYSDSTEVKFEELKNVKLEEEDEEEEQAAAALDLSVNPASVGGRLVFSGSKKKSSSSLGSGSSRDSISSDSETSEPLSCRAQGQTGVLTVHSYAKGDGRVTVGEPCTRKKGSAARSFSERELAEVADEYMFSLEENKKSKGRRQPLSKLPRHHPLVLQECVSDDETSEQLTPEEEAEETEAWAKPLSQLWQNRPPNFEAEKEFNETMAQQAPHCAVCMIFQTYHQVEFGGFNQNCGNASDLAPQKQRTKPLIPEMCFTSTGCSTDINLSTPYLEEDGTSILVSCKKCSVRVHASCYGVPPAKASEDWMCSRCSANALEEDCCLCSLRGGALQRANDDRWVHVSCAVAILEARFVNIAERSPVDVSKIPLPRFKLKCIFCKKRRKRTAGCCVQCSHGRCPTAFHVSCAQAAGVMMQPDDWPFVVFITCFRHKIPNLERAKGALQSITAGQKVISKHKNGRFYQCEVVRLTTETFYEVNFDDGSFSDNLYPEDIVSQDCLQFGPPAEGEVVQVRWTDGQVYGAKFVASHPIQMYQVEFEDGSQLVVKRDDVYTLDEELPKRVKSRLSVASDMRFNEIFTEKEVKQEKKRQRVINSRYREDYIEPALYRAIME
In the case of B2, the binding (GABARAP) is reported as “binds”.

B3: In vitro translated YL-1 (35S-Myc-YL-1) (protein, UniProt Q9VKM6 1-351)
chain: MAASRSRRNNAGNKIAHLLNEEEEDDFYKTSYGGFQEDEEDKEYEQKDEEEDVVDSDFSIDENDEPVSDQEEAPEKKRKRGVVNTKAYKETKPAVKKETKATPALHKKRPGGGVTKRRPRPRFTVLDSGRKSIRTSTAIKTQATKIRLKELDDARKRKKKKVRVEDYMPTQEELLEEAKITEEENTKSLEKFQKMELEKKKSRPTKRTFSGPTIRYHSLTMPAMRKPTRGANPAVDSKDLAGKCERTFVTIENDFNDKVFQSLFRHKAPPKASNGICPITRLPARYFDPITQQPYYSIQAFKILREAYYMQLEQQGGGSEQPELAKWLEWRKLVKENRLKASAAASKNGDN
modifications: 35S-methionine label
B3 was tested, and the binding [3] was “binds”, the binding [4] was “no binding” and the binding [5] was “no binding”. The binding [6] was “binds” and the binding [7] was “binds”.
